This note sets out measurements from publication doi:10.1101/2022.03.18.484968.

The chains behind the UniProt entries cited, without tags or fusion partners.
UniProt P32121: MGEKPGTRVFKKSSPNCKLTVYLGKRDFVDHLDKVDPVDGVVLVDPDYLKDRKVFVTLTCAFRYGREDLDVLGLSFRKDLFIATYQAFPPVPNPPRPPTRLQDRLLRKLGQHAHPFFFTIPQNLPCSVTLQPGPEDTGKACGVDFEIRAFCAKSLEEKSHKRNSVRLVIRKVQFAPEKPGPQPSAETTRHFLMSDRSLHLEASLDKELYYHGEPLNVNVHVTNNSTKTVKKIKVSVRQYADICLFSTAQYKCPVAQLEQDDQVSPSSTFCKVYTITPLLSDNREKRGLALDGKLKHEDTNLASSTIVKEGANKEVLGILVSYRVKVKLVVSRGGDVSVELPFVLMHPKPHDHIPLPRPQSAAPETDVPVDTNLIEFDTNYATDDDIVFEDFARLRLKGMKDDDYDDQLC

Read-outs that look alike come from different tables or passages of the source. No constants are given. Whether binding was seen depends on the method and setting. In cells and extracts the contact can be indirect. Some results given as binding are weak or reduced against the parent protein; the word gives no strength.

Experiment [1] deals with T1, chemokine receptor CCR1 (UniProt P32246).
T1 sequence: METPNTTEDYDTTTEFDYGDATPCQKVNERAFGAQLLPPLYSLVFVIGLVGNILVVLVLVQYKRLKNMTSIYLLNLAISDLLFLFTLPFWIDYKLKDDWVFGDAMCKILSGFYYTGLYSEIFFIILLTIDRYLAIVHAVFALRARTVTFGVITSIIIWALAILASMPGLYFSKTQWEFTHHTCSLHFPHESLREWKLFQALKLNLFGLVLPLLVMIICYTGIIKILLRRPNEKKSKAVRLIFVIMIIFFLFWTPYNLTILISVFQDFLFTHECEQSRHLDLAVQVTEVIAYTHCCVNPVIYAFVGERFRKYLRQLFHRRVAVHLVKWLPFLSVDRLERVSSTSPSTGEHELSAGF
Put plainly: co-IP.

Experiment [2] has as its target T1, chemokine receptor CCR1. Put plainly: co-IP. This is another data set of the same source.

Regarding “β-arrestin 2 (from UniProt P32121 1-409)”, the values for the binding entry in experiment [1] and in experiment [2] were “binds” and “binds weakly”, respectively.
